Test results from paper PMC9957728.
These are yes or no findings as the source states them, for the method shown. In cells and extracts the contact can be indirect. Some results given as binding are weak or reduced against the parent protein; the word gives no strength. For some assays here: Sequences can lack the tags named with a protein.

What was measured:
[1] = target: T1, Flag-tagged wild-type UBE2J1 (UniProt Q9Y385); assay: co-IP; HEK293T cells transfected with the indicated plasmids for 24 h; for UBE2J1 and RPS3 treated with MG132 (10 μM) for 8 h; western blotting
T1 sequence: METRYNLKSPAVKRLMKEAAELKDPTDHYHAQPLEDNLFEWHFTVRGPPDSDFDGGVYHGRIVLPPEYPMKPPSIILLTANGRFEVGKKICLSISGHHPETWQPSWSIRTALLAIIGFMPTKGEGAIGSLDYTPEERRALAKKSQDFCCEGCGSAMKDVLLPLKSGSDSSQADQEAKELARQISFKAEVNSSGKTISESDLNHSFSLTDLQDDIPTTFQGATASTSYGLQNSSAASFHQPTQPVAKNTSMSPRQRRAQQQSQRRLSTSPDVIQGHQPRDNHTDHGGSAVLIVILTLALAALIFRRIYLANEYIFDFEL

[2] = target: T2, Ubiquitin-conjugating enzyme E2 J1 (UBE2J1), endogenous (human (endogenous in DLD-1 and LoVo)) (UniProt Q9Y385); assay: co-IP; endogenous proteins in DLD-1 and LoVo lysates; primary antibody at 4 °C overnight, protein A/G magnetic beads, western blotting; for UBE2J1 and RPS3 cells treated with MG132 (10 μM) for 8 h
T2 sequence: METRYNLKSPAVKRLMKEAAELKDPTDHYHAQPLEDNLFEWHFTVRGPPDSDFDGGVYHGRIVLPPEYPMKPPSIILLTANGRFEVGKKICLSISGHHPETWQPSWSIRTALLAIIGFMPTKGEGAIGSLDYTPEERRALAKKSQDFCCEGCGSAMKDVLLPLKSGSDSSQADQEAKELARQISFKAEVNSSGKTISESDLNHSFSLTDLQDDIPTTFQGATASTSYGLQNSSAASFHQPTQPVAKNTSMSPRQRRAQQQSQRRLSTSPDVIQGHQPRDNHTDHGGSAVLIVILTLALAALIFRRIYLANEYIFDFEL

[3] = target: TRIM25 expressed from an overexpression plasmid (UniProt Q14258); assay: co-IP; HEK293T cells transfected with the indicated plasmids for 24 h; for UBE2J1 and RPS3 treated with MG132 (10 μM) for 8 h; western blotting
[4] = target: TRIM25 expressed from an overexpression plasmid (UniProt Q14258); assay: co-IP; co-immunoprecipitation with deletion mutants of TRIM25, RPS3 and UBE2J1 to map domains (Fig. S3G-J); cells and tags not told in the text shown
[5] = target: TRIM25 (RING-type E3 ubiquitin ligase), endogenous (human (endogenous in DLD-1 and LoVo)) (UniProt Q14258); assay: co-IP; endogenous proteins in DLD-1 and LoVo lysates; primary antibody at 4 °C overnight, protein A/G magnetic beads, western blotting; for UBE2J1 and RPS3 cells treated with MG132 (10 μM) for 8 h

**Q.** Which binding [1] does the source give for “TRIM25 expressed from an overexpression plasmid (from UniProt Q14258 1-630) (enzyme)” here?
**A.** binds

**Q.** With “TRIM25 (RING-type E3 ubiquitin ligase), endogenous (from UniProt Q14258 1-630) (enzyme)” as the molecule, how does the binding [2] read?
**A.** binds

B1: Flag-tagged wild-type UBE2J1 (enzyme, UniProt Q9Y385 1-318)
chain: METRYNLKSPAVKRLMKEAAELKDPTDHYHAQPLEDNLFEWHFTVRGPPDSDFDGGVYHGRIVLPPEYPMKPPSIILLTANGRFEVGKKICLSISGHHPETWQPSWSIRTALLAIIGFMPTKGEGAIGSLDYTPEERRALAKKSQDFCCEGCGSAMKDVLLPLKSGSDSSQADQEAKELARQISFKAEVNSSGKTISESDLNHSFSLTDLQDDIPTTFQGATASTSYGLQNSSAASFHQPTQPVAKNTSMSPRQRRAQQQSQRRLSTSPDVIQGHQPRDNHTDHGGSAVLIVILTLALAALIFRRIYLANEYIFDFEL
**Q.** B1 was tested. Which binding [3] did it give?
**A.** binds

**Q.** What about the binding [4] of the same molecule?
**A.** binds

B2: Ubiquitin-conjugating enzyme E2 J1 (UBE2J1), endogenous (enzyme, UniProt Q9Y385 1-318)
chain: METRYNLKSPAVKRLMKEAAELKDPTDHYHAQPLEDNLFEWHFTVRGPPDSDFDGGVYHGRIVLPPEYPMKPPSIILLTANGRFEVGKKICLSISGHHPETWQPSWSIRTALLAIIGFMPTKGEGAIGSLDYTPEERRALAKKSQDFCCEGCGSAMKDVLLPLKSGSDSSQADQEAKELARQISFKAEVNSSGKTISESDLNHSFSLTDLQDDIPTTFQGATASTSYGLQNSSAASFHQPTQPVAKNTSMSPRQRRAQQQSQRRLSTSPDVIQGHQPRDNHTDHGGSAVLIVILTLALAALIFRRIYLANEYIFDFEL
**Q.** For B2, which binding [5] is on record?
**A.** binds
